Measurements as given in PMC6572760.
Results are given in words; binding and its absence hold for the method and conditions named. In cells and extracts the contact can be indirect. A yes stands for co-enrichment or nearness to the bait. Other partners may have been found. Where a sequence is shown, tags or fusion partners need not be part of it.

Experiments:
[1] = molecular target: T1, Kic1-HKMTmyc (S. cerevisiae) (UniProt P38692); assay: proximity labelling; M-track protein-protein proximity assay in living yeast: bait fused to HKMTmyc tri-methylates the H3 moiety of Hog1-protA-H3 on close proximity; cells treated with 1 M sorbitol for 40 min (unstressed cells also tested); me3K9H3 over HA signal by Western blot of urea extracts, compared with a strain expressing only Hog1-protA-H3
T1 sequence: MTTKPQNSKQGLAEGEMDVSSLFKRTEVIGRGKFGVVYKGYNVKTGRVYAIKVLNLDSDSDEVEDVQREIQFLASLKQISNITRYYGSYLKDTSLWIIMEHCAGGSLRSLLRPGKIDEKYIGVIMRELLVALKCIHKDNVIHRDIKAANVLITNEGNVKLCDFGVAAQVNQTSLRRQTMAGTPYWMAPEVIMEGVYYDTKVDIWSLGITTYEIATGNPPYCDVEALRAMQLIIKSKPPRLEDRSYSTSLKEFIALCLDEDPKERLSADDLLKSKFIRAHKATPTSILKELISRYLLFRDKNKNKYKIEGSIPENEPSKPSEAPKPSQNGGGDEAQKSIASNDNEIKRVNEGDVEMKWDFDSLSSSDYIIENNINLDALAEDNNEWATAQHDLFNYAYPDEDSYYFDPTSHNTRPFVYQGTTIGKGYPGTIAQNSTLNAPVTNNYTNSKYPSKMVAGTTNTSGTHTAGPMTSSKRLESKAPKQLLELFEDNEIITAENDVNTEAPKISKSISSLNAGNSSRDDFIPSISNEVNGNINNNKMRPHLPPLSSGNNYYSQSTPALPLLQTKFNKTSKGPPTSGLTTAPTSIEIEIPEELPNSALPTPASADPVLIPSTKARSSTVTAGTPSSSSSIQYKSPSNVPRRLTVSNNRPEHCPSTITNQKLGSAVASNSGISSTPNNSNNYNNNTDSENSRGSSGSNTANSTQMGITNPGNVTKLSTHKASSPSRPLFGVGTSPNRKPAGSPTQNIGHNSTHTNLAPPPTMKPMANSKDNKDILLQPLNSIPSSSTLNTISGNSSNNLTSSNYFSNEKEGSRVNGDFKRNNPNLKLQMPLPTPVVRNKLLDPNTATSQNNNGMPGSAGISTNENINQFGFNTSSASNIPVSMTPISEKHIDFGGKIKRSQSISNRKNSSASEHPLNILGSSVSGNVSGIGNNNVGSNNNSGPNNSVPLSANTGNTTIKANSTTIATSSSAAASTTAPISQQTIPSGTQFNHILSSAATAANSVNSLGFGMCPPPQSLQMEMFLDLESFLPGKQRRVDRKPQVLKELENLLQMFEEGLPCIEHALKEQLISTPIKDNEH

[2] = molecular target: T2, Gcs1-HKMTmyc (S. cerevisiae) (UniProt P35197); assay: as above
T2 sequence: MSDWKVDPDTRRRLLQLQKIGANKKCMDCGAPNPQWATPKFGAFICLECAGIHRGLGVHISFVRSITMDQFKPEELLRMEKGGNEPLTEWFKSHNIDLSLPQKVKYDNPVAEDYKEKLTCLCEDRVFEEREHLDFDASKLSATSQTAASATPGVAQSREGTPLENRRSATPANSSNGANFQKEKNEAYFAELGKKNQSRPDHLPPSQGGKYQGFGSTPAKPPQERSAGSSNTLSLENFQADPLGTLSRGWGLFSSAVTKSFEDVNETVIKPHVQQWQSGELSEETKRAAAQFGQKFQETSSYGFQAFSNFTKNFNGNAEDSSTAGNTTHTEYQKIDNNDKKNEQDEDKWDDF

B1: Hog1-TEV-ProteinA-Histone3-HA (enzyme, UniProt P32485 1-435)
chain: MTTNEEFIRTQIFGTVFEITNRYNDLNPVGMGAFGLVCSATDTLTSQPVAIKKIMKPFSTAVLAKRTYRELKLLKHLRHENLICLQDIFLSPLEDIYFVTELQGTDLHRLLQTRPLEKQFVQYFLYQILRGLKYVHSAGVIHRDLKPSNILINENCDLKICDFGLARIQDPQMTGYVSTRYYRAPEIMLTWQKYDVEVDIWSAGCIFAEMIEGKPLFPGKDHVHQFSIITDLLGSPPKDVINTICSENTLKFVTSLPHRDPIPFSERFKTVEPDAVDLLEKMLVFDPKKRITAADALAHPYSAPYHDPTDEPVADAKFDWHFNDADLPVDTWRVMMYSEILDFHKIGGSDGQIDISATFDDQVAAATAAAAQAQAQAQAQVQLNMAAHSHNGAGTTGNDHSDIAGGNKVSDHVAANDTITDYGNQAIQYANEFQQ
In the case of B1, the binding [1] is reported as “binds” and the binding [2] is reported as “binds”.
